These are yes or no findings as the source states them, for the method shown. Binding seen in cells or lysates may run through a third protein. Some binding calls cover weakened binding; strength is not graded here. Sequences can lack the tags named with a protein.
Legend:
Test in all cases: pull-down; calmodulin affinity purification coupled to western blot (AP-WB): TAP-tagged interactor as bait on calmodulin sepharose beads, galactose-induced Wsc1-HA as prey, yeast lysate in CaM-IPLB with 1% Triton X-100, 2 hr at 4°
[1] = target: T1, Ras2p, TAP-tagged bait (S. cerevisiae) (UniProt P01120)
T1 sequence: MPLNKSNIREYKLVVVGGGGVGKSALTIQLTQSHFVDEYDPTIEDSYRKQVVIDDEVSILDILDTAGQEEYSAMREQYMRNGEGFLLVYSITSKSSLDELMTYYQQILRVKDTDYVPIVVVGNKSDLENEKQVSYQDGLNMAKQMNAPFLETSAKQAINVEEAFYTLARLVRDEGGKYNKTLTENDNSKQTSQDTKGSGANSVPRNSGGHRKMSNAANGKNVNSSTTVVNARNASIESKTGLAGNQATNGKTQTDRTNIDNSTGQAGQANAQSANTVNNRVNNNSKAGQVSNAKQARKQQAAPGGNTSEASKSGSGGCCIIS

[2] = target: T2, Msh6p, TAP-tagged bait (S. cerevisiae) (UniProt Q03834)
T2 sequence: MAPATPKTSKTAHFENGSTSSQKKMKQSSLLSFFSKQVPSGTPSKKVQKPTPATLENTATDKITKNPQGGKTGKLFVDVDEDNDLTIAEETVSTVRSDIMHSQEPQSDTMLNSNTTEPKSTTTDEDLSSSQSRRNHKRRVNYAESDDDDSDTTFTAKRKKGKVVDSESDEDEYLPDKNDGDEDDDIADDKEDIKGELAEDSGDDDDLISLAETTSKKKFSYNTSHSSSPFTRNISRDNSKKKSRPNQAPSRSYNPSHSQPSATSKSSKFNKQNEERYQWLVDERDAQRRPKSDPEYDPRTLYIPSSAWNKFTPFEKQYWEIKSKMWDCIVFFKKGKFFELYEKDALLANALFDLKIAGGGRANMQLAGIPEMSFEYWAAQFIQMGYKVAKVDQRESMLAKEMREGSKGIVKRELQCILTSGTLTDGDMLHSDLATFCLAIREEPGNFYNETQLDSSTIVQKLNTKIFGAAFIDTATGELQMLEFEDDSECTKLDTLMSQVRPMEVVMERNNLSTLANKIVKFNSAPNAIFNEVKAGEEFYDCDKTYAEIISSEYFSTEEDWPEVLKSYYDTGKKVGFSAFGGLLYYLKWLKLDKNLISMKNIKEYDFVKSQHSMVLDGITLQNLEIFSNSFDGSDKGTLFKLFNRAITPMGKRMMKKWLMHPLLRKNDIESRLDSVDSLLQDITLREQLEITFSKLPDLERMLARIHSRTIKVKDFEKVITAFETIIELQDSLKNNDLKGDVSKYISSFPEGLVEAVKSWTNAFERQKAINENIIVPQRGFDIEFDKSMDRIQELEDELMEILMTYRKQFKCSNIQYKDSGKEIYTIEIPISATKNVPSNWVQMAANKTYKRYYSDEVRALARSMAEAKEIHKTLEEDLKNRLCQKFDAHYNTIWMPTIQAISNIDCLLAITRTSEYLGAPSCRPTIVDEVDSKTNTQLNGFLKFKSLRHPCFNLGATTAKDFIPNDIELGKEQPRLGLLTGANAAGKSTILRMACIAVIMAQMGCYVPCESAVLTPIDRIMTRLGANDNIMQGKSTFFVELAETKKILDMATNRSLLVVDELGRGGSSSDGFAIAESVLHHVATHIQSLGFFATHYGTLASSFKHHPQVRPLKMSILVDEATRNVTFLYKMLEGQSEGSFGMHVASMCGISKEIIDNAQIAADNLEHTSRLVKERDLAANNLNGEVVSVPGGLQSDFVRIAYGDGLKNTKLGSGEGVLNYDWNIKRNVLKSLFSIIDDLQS

[3] = target: T3, Fba1p, TAP-tagged bait (S. cerevisiae) (UniProt P14540)
T3 sequence: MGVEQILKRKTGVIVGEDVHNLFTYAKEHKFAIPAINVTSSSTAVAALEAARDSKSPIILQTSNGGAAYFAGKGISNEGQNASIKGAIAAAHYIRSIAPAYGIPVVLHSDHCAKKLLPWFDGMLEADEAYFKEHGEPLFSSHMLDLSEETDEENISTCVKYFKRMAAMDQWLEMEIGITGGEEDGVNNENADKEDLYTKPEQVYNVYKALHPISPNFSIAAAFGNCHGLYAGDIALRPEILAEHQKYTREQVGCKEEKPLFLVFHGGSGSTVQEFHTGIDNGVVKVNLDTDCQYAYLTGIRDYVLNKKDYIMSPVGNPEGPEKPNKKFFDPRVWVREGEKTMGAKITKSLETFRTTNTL

[4] = target: T4, Tom70-TAP (S. cerevisiae) (UniProt P07213)
T4 sequence: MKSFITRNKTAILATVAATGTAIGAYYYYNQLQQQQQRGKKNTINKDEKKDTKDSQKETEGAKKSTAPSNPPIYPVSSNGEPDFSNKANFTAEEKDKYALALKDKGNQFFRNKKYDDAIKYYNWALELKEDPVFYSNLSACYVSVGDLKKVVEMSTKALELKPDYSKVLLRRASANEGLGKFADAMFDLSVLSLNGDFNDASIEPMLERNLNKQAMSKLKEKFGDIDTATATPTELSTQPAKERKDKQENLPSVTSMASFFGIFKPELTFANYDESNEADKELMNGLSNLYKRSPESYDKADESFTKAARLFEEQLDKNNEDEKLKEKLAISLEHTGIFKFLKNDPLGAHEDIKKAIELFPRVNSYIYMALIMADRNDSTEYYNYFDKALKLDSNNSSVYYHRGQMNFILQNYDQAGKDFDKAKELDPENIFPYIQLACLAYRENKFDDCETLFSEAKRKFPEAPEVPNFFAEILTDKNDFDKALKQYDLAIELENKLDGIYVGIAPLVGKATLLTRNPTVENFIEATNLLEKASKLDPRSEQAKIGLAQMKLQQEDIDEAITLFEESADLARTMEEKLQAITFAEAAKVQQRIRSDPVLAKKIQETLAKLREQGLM

B1: Wsc1-HA (protein, UniProt P54867 22-378)
chain: YEYVNCFSSLPSDFSKADSYNWQSSSHCNSECSAKGASYFALYNHSECYCGDTNPSGSESTSSSCNTYCFGYSSEMCGGEDAYSVYQLDSDTNSNSISSSDSSTESTSASSSTTSSTTSSTTSTTSSTTSSTTSSMASSSTVQNSPESTQAAASISTSQSSSTVTSESSLTSDTLATSSTSSQSQDATSIIYSTTFHTEGGSTIFVTNTITASAQNSGSATGTAGSDSTSGSKTHKKKANVGAIVGGVVGGVVGAVAIALCILLIVRHINMKREQDRMEKEYQEAIKPVEYPDKLYASSFSSNHGPSSGSFEEEHTKGQTDINPFDDSRRISNGTFINGGPGGKNNVLTVVNPDEAD
Question: With B1 as the binder, how does the binding [1] read?
Answer: binds

Question: What about the binding [2] of the same binder?
Answer: binds

Question: And the binding [3]?
Answer: binds

Question: And the binding [4]?
Answer: binds weakly

Source: paper PMC6469404
